# Laboratory results as given in PubChem BioAssay AID493014 (National Center for Advancing Translational Sciences (NCATS), 2011).
# Hit rate of the full screen: of about 340,000 compounds, about 170 (0.05%) were called active. Inconclusive results, whose numbers are uncertain, are shown with a selection of clear calls. Calls follow the shape of the dose curve; as a rule, active = well fitted inhibition curve with a large enough effect in the signal ratio, with a control signal flat (not every such curve was filed as active); inconclusive = small, poorly fitted or top-dose-only effect, or effect the other way, or a change in a side signal; inactive = flat fitted curve, though single readings scatter; the % refers to the signal ratio. Where the call is inconclusive, the potency comes from a doubtful curve fit.
# Assay: qHTS Assay to Find Inhibitors of Chronic Active B-Cell Receptor Signaling;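 as to activity change, negative = inhibition: plate controls were basal doxycycline-induced cells for no effect and cells given 10 µM MG132 for full effect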
# Conditions: ABC-DLBCL IkBa-CBG/CBR reporter, luminescence ratio (green luciferase fused to IkBa over red control in TMD8 lymphoma cells), 4 h; activity change, negative = inhibition: at 46.1 µM (top of the series) unless noted
# How it was run: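 Doxycycline induced both beetle luciferases in TMD8 lymphoma cells; IKK-driven degradation limits the IkappaBalpha-fused green signal, while red luminescence normalises for cell number and nonspecific effects. Compounds tested up to 46 uM, 4 hrs.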
# Potency is read from the fitted curve at half-maximal effect.
Compound,Potency,"activity change, negative = inhibition"
COc1ccc(COC(=O)C2=C(C)NC(=O)NC2c2ccc(O)cc2)cc1 (stereo not given),"inconclusive: 12.6 µM [falling, partial curve, poor fit]",–
COc1ccc(NC(=O)CC2CCCC2)cc1OC,–,inactive
CCN(C[C@H]1N[C@@](Cc2ccccc2)(C(=O)OC)[C@H]2C(=O)N(Cc3ccccc3)C(=O)[C@@H]12)C(=O)Nc1ccc(Cl)cc1,–,inactive
Cc1ccc(S(=O)(=O)Nc2cc(=O)[nH]c(SCC(=O)Nc3cccc(C(F)(F)F)c3)n2)cc1,–,inconclusive: 17.2%
CCOC(=O)N1CCN(C(=O)CCc2c(C)nc3c(c(C)nn3-c3ccc(C)c(C)c3)c2C)CC1,–,inconclusive: 2.94%
Cc1ccc(NC(=O)CN2CCCCC2)c2c1CC(C)(C)O2,–,inconclusive: 14.3%
Cc1cc2c(cc1C)CN(c1ccccc1)C2,–,inconclusive: -7.29%
CCOC(=O)CCn1nnc(N)n1,–,inconclusive: 18%
O=C1c2cc(Cl)ccc2OC2(CCNCC2)C12CC(c1ccccc1)=NO2 (stereo not given),–,inconclusive: -1.22%
O=C(COc1ccc2ccccc2c1)Nc1ccc(S(=O)(=O)N2CCCCCC2)cc1,–,inconclusive: 0.606%
COC(=O)c1cc(-c2c(C)oc3cc(O)ccc3c2=O)c(C)o1,–,inconclusive: -0.0126%
O=c1c(-c2ccccc2)c1-c1ccccc1,–,inconclusive: -0.979%
CC(C)OC(=O)Cn1nnc2c(cnn2-c2ccccc2)c1=O,"inconclusive: 29.1 µM [falling, single point]",–
O=C1N(c2ccccc2)C(c2ccccc2)C12CCCCC2 (stereo not given),–,inconclusive: 2.93%
O=S(=O)(c1ccccc1)c1nc(-c2ccco2)oc1Nc1ccccc1,–,inconclusive: -10.8%
O=C(Cc1ccccc1[N+](=O)[O-])NCc1ccc(Cl)cc1Cl,–,inconclusive: 10.8%
Cc1ccccc1N1C(=O)CSC1=C(C#N)C#N,–,inconclusive: -18.5%
Cc1cc(/C=N/n2cnnc2)c(C)n1-c1ccc(OCc2ccc(F)cc2)cc1,"inconclusive: 22.4 µM [falling, single point]",–
CC1(CC(=O)N/N=C/c2ccc(-c3cccc(C(F)(F)F)c3)o2)OCCO1,–,inactive
CCCCCCNC(=O)CCCCCNS(=O)(=O)c1ccc(OC)cc1,–,inactive
Cc1csc(SCC(=O)Nc2ccccn2)n1,–,inconclusive: -5.91%
S=c1[nH]nc(-c2ccco2)n1/N=C/C=C/c1ccccc1,"inconclusive: 22.4 µM [falling, single point]",–

Compound,Potency,"activity change, negative = inhibition"
Cc1ccccc1C(=O)NC1CC(C)(C)NC(C)(C)C1,–,inconclusive: 7.46%
CC(C)(C)C(=O)CN1C(=O)NC2(CCCc3ccccc32)C1=O (stereo not given),–,inactive
Cc1cc(C(=O)N/N=C2\CCCc3ccccc32)c(C)o1,"inconclusive: 23.1 µM [falling, partial curve]",–
O=C(O)c1ccc(O)c2ncccc12,–,inactive
CCOC(=O)c1ccc(N2CN=C3SCC(=O)N3C2)cc1,–,inconclusive: -7.82%
CC(C)C(NS(=O)(=O)c1c(Cl)cccc1Cl)C(=O)OCC(=O)c1c[nH]c2ccccc12 (stereo not given),–,inconclusive: -4.34%
Cc1ncc(CSc2ccc(Cl)cc2)c(CO)c1O,–,inconclusive: 0.539%
O=C(c1cccc(Cl)c1)N1CCCC(c2ccc(Cl)cc2)=N1,–,inconclusive: -3.1%
CCC1SC2=NC(C)=C(C(=O)OCCOC)C(c3ccc(C(=O)OC)cc3)N2C1=O (stereo not given),–,inconclusive: 0.788%
COCCNC(=S)N1CCC(c2nc(-c3ccc(N(C)C)cc3)no2)CC1,–,inconclusive: -20.8%
CCC(C)c1ccc(NC(=S)NC2CCN(Cc3ccccc3)CC2)cc1 (stereo not given),–,inactive
CCc1ccc(-c2nc(CS(=O)CC(=O)NCc3ccc(F)cc3)c(C)o2)cc1 (stereo not given),"inconclusive: 7.94 µM [falling, partial curve, poor fit]",–
CN(C)c1ccc(/C=N/NC2=NS(=O)(=O)c3ccccc32)cc1,–,inactive
COc1ccc2[nH]c3c(=O)n(CCc4ccccc4)cnc3c2c1,–,inconclusive: -26%
COC(=O)c1c(NC(=O)CSc2nnc(-c3cccnc3)n2Cc2ccco2)sc(C)c1C,–,inconclusive: -4.4%
Cc1cc(C(=O)CSc2nnc(Nc3ccccc3)s2)c(C)n1CC1CCCO1 (stereo not given),–,inconclusive: 0.0982%
c1ccc2c(c1)[nH]c1c(N3CCC4(CC3)OCCO4)ncnc12,–,inactive
COc1ccc(/C=C(\C#N)C(=O)NC(C)c2ccccc2)cc1O (stereo not given),"inconclusive: 35.5 µM [falling, single point]",–
Cc1ccc(S(=O)(=O)N2CCN(C(=O)COC(=O)/C=C/c3ccccc3)CC2)c(C)c1,–,inactive
CCOC(=O)/C(Sc1nc(-c2ccccc2)cc(-c2ccccc2)c1C#N)=C(\C)O,–,inconclusive: 2.64%
Cc1nc(CSc2nc3[nH]ncc3c(=O)n2-c2ccccc2)cs1,–,inconclusive: -4.83%
CCOC(=O)c1cnc2ccc(OCC)cc2c1N1CCN(c2ccccc2)CC1,–,inconclusive: -1.23%

Compound,Potency,"activity change, negative = inhibition"
CCOC(=O)C1=C(C)NC(=O)NC1c1ccc(-c2ccc(Cl)cc2)o1 (stereo not given),"inconclusive: 22.4 µM [falling, single point]",–
O=C(c1ccco1)N1CCN(S(=O)(=O)c2ccc3c(c2)CCN3C(=O)C2CC2)CC1,–,inactive
C=C(C)Cn1c(N2CCN(c3ccc(OC)cc3)CC2)nc2c1c(=O)n(C)c(=O)n2C,–,inactive
Cc1ccccc1/C=C1\C(=O)Nc2ccc(F)cc21,"inconclusive: 35.5 µM [falling, single point]",–
Cc1cccc(OCC(=O)NNC(=O)c2cccs2)c1,–,inactive
CC(C)c1ccc(Nc2nc(CC(=O)O)cs2)cc1,–,inconclusive: 4.93%
N#Cc1ccccc1-n1c(N)c(C(=O)N2CCCC2)sc1=S,–,inconclusive: -2.88%
COC(=O)c1ccc(CSc2nnnn2Cc2ccccc2)cc1,–,inconclusive: -7.03%
Cc1cccc(NCc2ccccc2O)n1,–,inactive
CCOC(=O)[C@H]1[C@H]2COc3ccc(OC)cc3[C@@H]2N2C(=O)c3cc(C)ccc3NC(=O)[C@@]12C,–,inactive
COc1ccc([C@H]2CC(=O)C=C(c3ccccc3)C2)cc1OC,–,inactive
COc1ccc(N=Nc2n(C)c3ccccc3[n+]2C)cc1,"inconclusive: 4.47 µM [cytotoxic, partial curve]",–
CCOc1ccccc1Oc1ncnc2c1oc1ccccc12,–,inconclusive: 15.4%
c1csc(C2=NNC(=NC3CCCCC3)SC2)c1,–,inconclusive: -24.8%
COc1ccccc1OCc1nc2ccccc2n1Cc1ccccc1,–,inactive
O=C(O)c1cccc(-n2cccc2/C=C\[N+](=O)[O-])c1,–,inconclusive: 15.5%
Cn1ncc2c(Nc3ccc([N+](=O)[O-])cc3)nc(Cl)nc21,–,inconclusive: 3.13%
COc1ccc(C(C(=O)NC(C)(C)C)N(Cc2ccco2)C(=O)CCC(=O)Nc2cc(C)on2)cc1 (stereo not given),–,inconclusive: -15.9%
COC(=O)C1=CN(Cc2ccc(OC)c(OC)c2)C=C(C(=O)OC)C1c1ccc(O)cc1,–,inconclusive: -10.1%
CCOc1ccc(N2C(=O)/C(=C\c3ccc(O)c(OC)c3)S(=O)(=O)C2c2cccc([N+](=O)[O-])c2)cc1 (stereo not given),–,inactive
O=C(c1ccco1)N1CCN(c2ncnc3c2[nH]c2ccc(Cl)cc23)CC1,–,inconclusive: -3.93%
O=C(OCc1nnc(-c2ccccc2)o1)c1ccco1,–,inconclusive: 4.08%

Compound,Potency,"activity change, negative = inhibition"
CC(C)(C)c1ccc(S(=O)(=O)NCC(=O)N2CCN(C(=O)c3ccco3)CC2)cc1,–,inconclusive: -0.406%
O=C(O)C1C2C=CC(C2)C1C(=O)Nc1ccc(Cl)c(Cl)c1 (stereo not given),–,inconclusive: 18.2%
O=C(O)COc1ccc(/C=C/c2nc(-c3ccccc3O)n[nH]2)cc1,"inconclusive: 17.8 µM [falling, partial curve]",–
Cc1cccc(N2CN=c3s/c(=C\c4ccccn4)c(=O)n3C2)c1,–,inconclusive: 8.47%
Cc1nc2sc(C(c3ccccc3)N3CCOCC3)c(O)n2n1 (stereo not given),–,inconclusive: 11.8%
Cc1nc(SCc2ccccc2)nc2c1CCC2,–,inconclusive: -0.301%
COC(=O)c1c(C(=O)OC)c2ccncn2c1Cl,"inconclusive: 14.6 µM [rising, partial curve, poor fit]",–
Cc1ccc(C)c(NC(=O)COC(=O)CNC(=O)c2ccccc2Cl)c1,–,inconclusive: 7.3%
CN(C)C(CNC(=O)c1cccc(S(=O)(=O)N2CC3(C)CC2CC(C)(C)C3)c1)c1ccco1 (stereo not given),–,inconclusive: -3.52%
CCSc1nnc(NC(=O)c2ccccc2)s1,"inconclusive: 20.6 µM [falling, partial curve]",–
COc1ccc(C(=O)OCc2c(C)noc2C)cc1,–,inconclusive: -10.7%
CCOC(=O)c1ccc(COC(=O)c2cc3ccccc3oc2=O)o1,–,inconclusive: 14.2%
COc1cc(NC(=O)c2ccccc2F)ccc1NC(=O)c1cc2ccccc2o1,–,inactive
COc1cc(OC)cc(C(=O)Nc2ccc3nc4n(c(=O)c3c2)CCCC4)c1,"inconclusive: 12.6 µM [falling, partial curve]",–
Nc1nc(SCc2ccccc2)ns1,–,inconclusive: 0.465%
CCCCCCSc1ccc([C@@H]2[C@H]3C(=O)N(CC)C(=O)[C@H]3[C@]3(C(=O)OC)CCCCN23)cc1OC,–,inactive
Cc1noc(C)c1C(=O)OCC(=O)c1cc(C)n(Cc2ccccc2Cl)c1C,–,inconclusive: -5.15%
O=C(Nc1nc2ccc(F)cc2s1)c1cccc(S(=O)(=O)N2CCc3ccccc32)c1,–,inconclusive: 12.8%
COC(=O)c1ccccc1NC(=O)Cn1nnc(-c2ccc(OC)cc2)n1,"inconclusive: 29.1 µM [falling, single point]",–

# For convenience, 5 of the compounds above.
Compound,Potency,"activity change, negative = inhibition"
COc1ccc(C(=O)OCc2c(C)noc2C)cc1,–,inconclusive: -10.7%
CCOC(=O)c1ccc(COC(=O)c2cc3ccccc3oc2=O)o1,–,inconclusive: 14.2%
COc1cc(NC(=O)c2ccccc2F)ccc1NC(=O)c1cc2ccccc2o1,–,inactive
COc1cc(OC)cc(C(=O)Nc2ccc3nc4n(c(=O)c3c2)CCCC4)c1,"inconclusive: 12.6 µM [falling, partial curve]",–
Nc1nc(SCc2ccccc2)ns1,–,inconclusive: 0.465%
